Some of the results follow.
compound: CCCS(=O)(=O)Nc1ccc(F)c(C(=O)c2c[nH]c3ncc(Cl)cc23)c1F; assay: log2 fold change, soluble protein after heating vs DMSO (PISA); higher = thermal stabilisation; K562 cells, 10 uM, 30 min; active = over 0.2 and 3.5 SD of the protein, either way, in both replicates (recomputed)
How it was run: (§1)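 Soluble protein was defined as the supernatant after 21,000xg for 90 min. It came from K562 cells at 2×10^6 cells/mL given 10 μM compound for 30 min, heated in aliquots for 3 min across 48°C-58°C, pooled, and extracted in PBS with 0.5% NP-40 at 4°C, and was quantified by TMTpro 16plex LC-MS/MS with equalised channel sums. Thermal stability against control samples, from duplicates, is reported as log2 fold change.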

Chains of the proteins cited; added tags and fusions are not shown. Lines headed by an entry give the natural chain unless they say otherwise; changes in a name come on top.
UniProt P61968: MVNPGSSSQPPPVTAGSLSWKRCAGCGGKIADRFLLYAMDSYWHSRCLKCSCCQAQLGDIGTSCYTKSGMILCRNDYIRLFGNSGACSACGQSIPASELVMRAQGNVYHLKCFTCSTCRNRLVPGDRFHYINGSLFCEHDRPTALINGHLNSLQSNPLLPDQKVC
UniProt O95214: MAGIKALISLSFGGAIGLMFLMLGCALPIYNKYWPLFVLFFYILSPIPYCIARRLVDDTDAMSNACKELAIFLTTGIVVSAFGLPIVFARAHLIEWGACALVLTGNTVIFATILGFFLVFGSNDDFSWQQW
UniProt P13473: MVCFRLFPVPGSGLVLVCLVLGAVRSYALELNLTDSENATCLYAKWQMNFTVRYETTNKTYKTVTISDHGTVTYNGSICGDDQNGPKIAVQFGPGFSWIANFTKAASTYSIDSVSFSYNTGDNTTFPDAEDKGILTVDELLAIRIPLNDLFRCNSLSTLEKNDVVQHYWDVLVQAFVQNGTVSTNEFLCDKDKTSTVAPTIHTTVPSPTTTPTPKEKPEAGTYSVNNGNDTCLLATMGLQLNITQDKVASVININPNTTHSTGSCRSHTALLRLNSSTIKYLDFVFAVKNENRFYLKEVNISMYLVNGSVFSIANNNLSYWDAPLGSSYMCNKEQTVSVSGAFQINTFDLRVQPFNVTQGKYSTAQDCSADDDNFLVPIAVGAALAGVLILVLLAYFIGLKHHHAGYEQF
UniProt Q6P1M3: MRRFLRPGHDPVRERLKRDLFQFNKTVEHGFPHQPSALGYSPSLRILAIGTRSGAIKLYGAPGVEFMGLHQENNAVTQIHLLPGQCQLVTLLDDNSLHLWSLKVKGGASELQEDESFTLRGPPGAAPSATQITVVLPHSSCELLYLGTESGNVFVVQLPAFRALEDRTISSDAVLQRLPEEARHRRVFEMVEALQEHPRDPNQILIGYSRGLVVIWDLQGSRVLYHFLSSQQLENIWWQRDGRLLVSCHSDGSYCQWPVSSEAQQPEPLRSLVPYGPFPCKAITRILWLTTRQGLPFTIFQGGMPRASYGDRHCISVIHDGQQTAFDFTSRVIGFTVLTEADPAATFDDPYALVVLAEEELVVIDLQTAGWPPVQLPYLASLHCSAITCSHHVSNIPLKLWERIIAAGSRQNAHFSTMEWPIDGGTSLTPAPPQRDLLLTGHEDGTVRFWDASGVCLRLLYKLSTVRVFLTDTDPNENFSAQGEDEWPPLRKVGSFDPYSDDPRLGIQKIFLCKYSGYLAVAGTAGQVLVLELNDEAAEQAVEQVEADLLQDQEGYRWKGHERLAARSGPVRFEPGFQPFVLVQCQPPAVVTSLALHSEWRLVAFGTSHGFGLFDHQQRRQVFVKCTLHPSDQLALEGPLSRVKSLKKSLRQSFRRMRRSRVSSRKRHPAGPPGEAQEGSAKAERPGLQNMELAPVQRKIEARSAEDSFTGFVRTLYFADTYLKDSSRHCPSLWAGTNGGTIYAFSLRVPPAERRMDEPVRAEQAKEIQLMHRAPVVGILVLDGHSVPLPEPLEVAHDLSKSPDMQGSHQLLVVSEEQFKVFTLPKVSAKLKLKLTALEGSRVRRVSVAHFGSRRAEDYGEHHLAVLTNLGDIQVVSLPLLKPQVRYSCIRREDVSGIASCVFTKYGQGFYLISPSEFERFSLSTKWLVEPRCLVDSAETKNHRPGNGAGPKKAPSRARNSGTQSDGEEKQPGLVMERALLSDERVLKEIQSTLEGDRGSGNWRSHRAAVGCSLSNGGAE
UniProt Q15048: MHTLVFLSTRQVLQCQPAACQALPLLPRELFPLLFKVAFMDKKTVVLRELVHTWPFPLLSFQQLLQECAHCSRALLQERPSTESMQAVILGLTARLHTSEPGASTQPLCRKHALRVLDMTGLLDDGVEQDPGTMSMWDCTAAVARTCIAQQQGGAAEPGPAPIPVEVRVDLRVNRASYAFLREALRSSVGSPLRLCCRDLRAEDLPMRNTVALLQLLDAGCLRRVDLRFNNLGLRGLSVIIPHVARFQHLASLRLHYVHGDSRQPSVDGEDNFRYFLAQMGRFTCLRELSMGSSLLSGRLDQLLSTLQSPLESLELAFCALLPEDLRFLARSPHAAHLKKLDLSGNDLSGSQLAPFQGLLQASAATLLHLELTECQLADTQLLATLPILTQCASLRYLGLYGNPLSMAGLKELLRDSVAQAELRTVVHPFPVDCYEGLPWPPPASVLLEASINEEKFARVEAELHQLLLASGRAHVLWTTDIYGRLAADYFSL
UniProt Q9BQD3: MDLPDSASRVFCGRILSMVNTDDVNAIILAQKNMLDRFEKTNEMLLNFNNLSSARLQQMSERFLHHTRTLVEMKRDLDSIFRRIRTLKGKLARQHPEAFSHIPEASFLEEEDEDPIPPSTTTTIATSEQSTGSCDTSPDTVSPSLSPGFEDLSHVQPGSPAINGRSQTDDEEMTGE
UniProt P24043: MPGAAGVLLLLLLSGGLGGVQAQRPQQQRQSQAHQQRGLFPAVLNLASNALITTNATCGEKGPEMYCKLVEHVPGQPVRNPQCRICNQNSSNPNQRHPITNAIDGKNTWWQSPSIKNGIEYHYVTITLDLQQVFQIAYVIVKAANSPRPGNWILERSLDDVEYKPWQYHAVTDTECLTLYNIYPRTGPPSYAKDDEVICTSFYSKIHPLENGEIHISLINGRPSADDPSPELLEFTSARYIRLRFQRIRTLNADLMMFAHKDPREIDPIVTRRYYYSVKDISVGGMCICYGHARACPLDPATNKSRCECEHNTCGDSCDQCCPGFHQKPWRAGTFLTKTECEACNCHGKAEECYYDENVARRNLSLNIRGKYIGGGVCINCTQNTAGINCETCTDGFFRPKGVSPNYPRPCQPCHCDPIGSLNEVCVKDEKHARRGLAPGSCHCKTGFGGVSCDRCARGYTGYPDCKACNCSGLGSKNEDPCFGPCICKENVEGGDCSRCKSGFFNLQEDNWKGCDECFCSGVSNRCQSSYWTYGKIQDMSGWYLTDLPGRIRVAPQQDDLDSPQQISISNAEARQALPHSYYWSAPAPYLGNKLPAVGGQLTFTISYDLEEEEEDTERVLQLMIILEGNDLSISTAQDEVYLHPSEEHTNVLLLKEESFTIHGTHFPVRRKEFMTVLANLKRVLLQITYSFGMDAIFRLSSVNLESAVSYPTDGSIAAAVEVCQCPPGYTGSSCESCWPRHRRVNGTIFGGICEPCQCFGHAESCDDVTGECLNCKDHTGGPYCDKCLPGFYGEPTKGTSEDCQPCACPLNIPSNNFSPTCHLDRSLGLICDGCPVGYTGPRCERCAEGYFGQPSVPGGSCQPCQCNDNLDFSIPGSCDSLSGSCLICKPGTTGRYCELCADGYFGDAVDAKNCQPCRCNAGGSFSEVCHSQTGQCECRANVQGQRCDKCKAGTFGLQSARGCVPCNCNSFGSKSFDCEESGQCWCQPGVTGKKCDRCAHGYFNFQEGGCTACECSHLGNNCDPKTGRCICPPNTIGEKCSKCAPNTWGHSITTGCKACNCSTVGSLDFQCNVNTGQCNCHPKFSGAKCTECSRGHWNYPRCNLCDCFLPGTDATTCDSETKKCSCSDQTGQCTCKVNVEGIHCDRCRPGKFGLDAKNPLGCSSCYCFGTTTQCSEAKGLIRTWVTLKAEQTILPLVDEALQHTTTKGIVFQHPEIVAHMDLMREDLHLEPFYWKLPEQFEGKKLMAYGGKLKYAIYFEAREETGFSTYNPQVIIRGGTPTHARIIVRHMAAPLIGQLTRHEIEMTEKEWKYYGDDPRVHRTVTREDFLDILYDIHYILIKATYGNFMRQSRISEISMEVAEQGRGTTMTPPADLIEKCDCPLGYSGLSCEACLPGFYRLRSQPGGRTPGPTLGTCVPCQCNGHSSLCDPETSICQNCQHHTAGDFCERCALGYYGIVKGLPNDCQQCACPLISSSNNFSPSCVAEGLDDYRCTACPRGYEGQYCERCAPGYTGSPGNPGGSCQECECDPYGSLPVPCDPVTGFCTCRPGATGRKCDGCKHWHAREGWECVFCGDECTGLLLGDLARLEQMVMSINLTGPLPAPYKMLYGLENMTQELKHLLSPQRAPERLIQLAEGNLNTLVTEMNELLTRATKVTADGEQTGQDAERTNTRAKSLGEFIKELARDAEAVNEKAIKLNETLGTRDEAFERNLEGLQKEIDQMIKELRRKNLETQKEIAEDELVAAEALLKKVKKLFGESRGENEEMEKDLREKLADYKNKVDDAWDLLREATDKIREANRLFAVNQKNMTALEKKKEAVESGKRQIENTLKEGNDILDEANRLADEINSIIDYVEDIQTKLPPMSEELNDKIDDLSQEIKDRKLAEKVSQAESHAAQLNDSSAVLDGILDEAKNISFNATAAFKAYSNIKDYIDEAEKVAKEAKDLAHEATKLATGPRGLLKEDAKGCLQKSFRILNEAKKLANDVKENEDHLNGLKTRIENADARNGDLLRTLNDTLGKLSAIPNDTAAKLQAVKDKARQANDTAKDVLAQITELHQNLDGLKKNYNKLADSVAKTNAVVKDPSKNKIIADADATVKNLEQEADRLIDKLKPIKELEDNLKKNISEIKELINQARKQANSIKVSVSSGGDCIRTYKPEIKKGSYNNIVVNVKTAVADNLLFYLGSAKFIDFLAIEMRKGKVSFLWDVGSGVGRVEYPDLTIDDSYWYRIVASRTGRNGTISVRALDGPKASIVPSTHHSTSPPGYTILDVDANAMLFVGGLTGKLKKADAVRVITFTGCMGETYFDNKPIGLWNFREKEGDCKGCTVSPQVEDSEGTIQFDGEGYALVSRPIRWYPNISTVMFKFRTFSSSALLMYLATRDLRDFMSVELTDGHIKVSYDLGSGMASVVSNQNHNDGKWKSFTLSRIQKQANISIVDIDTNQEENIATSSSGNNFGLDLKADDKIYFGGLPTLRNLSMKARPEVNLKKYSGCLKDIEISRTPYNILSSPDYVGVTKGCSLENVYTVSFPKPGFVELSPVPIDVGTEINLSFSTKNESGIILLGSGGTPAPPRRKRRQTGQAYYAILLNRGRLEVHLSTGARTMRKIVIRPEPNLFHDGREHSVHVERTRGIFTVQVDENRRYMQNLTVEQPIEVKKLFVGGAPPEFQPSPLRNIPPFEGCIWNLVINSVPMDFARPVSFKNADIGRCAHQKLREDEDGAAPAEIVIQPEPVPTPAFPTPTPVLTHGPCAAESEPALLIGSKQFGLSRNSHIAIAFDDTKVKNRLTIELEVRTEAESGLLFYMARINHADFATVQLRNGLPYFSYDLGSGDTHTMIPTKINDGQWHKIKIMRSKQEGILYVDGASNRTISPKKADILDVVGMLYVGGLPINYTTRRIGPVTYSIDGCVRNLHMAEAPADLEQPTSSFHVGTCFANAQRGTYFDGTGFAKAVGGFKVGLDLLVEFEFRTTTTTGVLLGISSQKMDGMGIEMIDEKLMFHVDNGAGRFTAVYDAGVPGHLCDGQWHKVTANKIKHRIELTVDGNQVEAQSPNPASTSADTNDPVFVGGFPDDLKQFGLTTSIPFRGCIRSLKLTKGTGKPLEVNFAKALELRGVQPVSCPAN
UniProt P28300: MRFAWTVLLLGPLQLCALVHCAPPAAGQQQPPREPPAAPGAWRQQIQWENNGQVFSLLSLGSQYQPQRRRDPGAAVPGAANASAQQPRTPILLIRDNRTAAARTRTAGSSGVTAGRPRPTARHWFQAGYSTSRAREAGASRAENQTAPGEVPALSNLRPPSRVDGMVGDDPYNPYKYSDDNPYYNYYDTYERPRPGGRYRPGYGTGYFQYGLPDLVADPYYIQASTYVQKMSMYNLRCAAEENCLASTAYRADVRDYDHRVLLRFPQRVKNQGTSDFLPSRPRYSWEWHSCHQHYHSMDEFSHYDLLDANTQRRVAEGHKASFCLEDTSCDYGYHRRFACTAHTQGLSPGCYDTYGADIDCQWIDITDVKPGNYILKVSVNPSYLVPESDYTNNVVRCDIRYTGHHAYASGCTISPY
UniProt Q86VI4: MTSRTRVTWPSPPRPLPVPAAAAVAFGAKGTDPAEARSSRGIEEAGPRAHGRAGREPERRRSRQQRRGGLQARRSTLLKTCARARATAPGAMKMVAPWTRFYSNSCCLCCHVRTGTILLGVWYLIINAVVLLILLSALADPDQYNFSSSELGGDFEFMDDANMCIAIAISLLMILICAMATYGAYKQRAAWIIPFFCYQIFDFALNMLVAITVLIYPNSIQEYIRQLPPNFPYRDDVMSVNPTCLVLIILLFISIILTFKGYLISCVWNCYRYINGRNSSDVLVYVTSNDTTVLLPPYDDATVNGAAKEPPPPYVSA
UniProt O00214: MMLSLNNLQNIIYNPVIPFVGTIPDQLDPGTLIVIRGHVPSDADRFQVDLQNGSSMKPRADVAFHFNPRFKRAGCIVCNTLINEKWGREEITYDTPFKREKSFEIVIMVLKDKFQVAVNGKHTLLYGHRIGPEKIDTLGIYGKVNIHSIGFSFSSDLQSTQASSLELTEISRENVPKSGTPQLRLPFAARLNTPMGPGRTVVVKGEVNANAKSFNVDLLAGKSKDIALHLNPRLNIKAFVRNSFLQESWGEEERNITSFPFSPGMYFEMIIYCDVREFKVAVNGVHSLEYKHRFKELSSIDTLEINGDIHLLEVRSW

log2 fold change, inactive:
LMO4 (UniProt P61968) -0.092, LBH (UniProt Q53QV2) -0.015, LEPROTL1 isoform 2 (UniProt O95214) -0.054, LAMP2 isoform 2 (UniProt P13473) -0.093, LRP5 (UniProt O75197) 0, LLGL2 (UniProt Q6P1M3) -0.081, LAMB2 (UniProt P55268) -0.183, LRRC14 (UniProt Q15048) 0.181, LMLN isoform 3 (UniProt Q96KR4) -0.166, LGMN (UniProt Q99538) -0.011, KXD1 (UniProt Q9BQD3) 0.059, LHFPL2 (UniProt Q6ZUX7) -0.105

compound: CCCc1cc(C)[nH]c(=O)c1CNC(=O)c1cc(-c2ccnc(N3CCN(C)CC3)c2)cc2c1cnn2C(C)C; assay: as above
How it was run: as §1

log2 fold change, inactive:
LMO4 (UniProt P61968) -0.162, LBH (UniProt Q53QV2) 0.033, LGALS3 (UniProt P17931) -0.074, LRP1 (UniProt Q07954) -0.166, LEPROTL1 isoform 2 (UniProt O95214) -0.053, L1TD1 (UniProt Q5T7N2) 0.473, LAMP2 isoform 2 (UniProt P13473) -0.071, LIN52 (UniProt Q52LA3) 0.123, LGALSL (UniProt Q3ZCW2) 0.225, LAMA5 (UniProt O15230) -0.135, LLGL2 (UniProt Q6P1M3) -0.098, LAMB2 (UniProt P55268) 0.119, LRRC14 (UniProt Q15048) -0.053, KXD1 (UniProt Q9BQD3) 0.072, LOR (UniProt P23490) -0.01, LAMA2 (UniProt P24043) -0.138, LOX (UniProt P28300) -0.269, LEPROT (UniProt O15243) -0.12, LAPTM4B (UniProt Q86VI4) -0.228, LGALS8 isoform 2 (UniProt O00214) -0.062, LIPT1 (UniProt Q9Y234) 0.119

compound: CCN(CC)Cc1ccc2cc(COC(=O)Nc3ccc(C(=O)NO)cc3)ccc2c1 [givinostat]; assay: as above
How it was run: as §1

log2 fold change, inactive:
LAMP2 isoform 2 (UniProt P13473) -0.158, LAMA5 (UniProt O15230) 0.115, LLGL2 (UniProt Q6P1M3) 0.046, LRRC14 (UniProt Q15048) 0.247, KXD1 (UniProt Q9BQD3) 0.094, LAMA2 (UniProt P24043) 0.392, LOX (UniProt P28300) 0.087, LEPROT (UniProt O15243) -0.467, LDLRAP1 (UniProt Q5SW96) 0.284, LINC00526 (UniProt Q96FQ7) 0.031, LDHD (UniProt Q86WU2) 0.149, LAPTM4B (UniProt Q86VI4) 0.128, LGALS8 isoform 2 (UniProt O00214) 0.072, LRRC42 (UniProt Q9Y546) 0.129, LHFPL2 (UniProt Q6ZUX7) -0.258

compound: CCN(CCCOc1ccc2c(Nc3cc(CC(=O)Nc4cccc(F)c4)[nH]n3)ncnc2c1)CCOP(=O)(O)O [barasertib]; assay: as above
How it was run: as §1

log2 fold change, inactive:
LMO4 (UniProt P61968) 0.04, LPP (UniProt Q93052) 0.096, LGALS3 (UniProt P17931) 0.17, LANCL3 (UniProt Q6ZV70) -0.027, LEPROTL1 isoform 2 (UniProt O95214) -0.174, LAMP2 isoform 2 (UniProt P13473) 0, LLGL2 (UniProt Q6P1M3) 0, LRRC14 (UniProt Q15048) 0.167, LMLN isoform 3 (UniProt Q96KR4) 0.068, LAPTM5 (UniProt Q13571) 0.102, LDHC (UniProt P07864) 0.244, KXD1 (UniProt Q9BQD3) -0.021, LAMA2 (UniProt P24043) 0.011, LOX (UniProt P28300) -0.129, LIN28A (UniProt Q9H9Z2) 0.052, LDLRAP1 (UniProt Q5SW96) 0.146, LIMS1 (UniProt P48059) 0.042, LAPTM4B (UniProt Q86VI4) 0.002, LGALS8 isoform 2 (UniProt O00214) 0.13, LRRC42 (UniProt Q9Y546) 0.069

Source: the supplement of paper PMC10849652
